The source of these data is article PMC12080455.

Protein sequences, listed by entry. Tags and fused reporters are not part of them. Lines headed by an entry give the natural chain unless they say otherwise; changes in a name come on top.
UniProt Q12873: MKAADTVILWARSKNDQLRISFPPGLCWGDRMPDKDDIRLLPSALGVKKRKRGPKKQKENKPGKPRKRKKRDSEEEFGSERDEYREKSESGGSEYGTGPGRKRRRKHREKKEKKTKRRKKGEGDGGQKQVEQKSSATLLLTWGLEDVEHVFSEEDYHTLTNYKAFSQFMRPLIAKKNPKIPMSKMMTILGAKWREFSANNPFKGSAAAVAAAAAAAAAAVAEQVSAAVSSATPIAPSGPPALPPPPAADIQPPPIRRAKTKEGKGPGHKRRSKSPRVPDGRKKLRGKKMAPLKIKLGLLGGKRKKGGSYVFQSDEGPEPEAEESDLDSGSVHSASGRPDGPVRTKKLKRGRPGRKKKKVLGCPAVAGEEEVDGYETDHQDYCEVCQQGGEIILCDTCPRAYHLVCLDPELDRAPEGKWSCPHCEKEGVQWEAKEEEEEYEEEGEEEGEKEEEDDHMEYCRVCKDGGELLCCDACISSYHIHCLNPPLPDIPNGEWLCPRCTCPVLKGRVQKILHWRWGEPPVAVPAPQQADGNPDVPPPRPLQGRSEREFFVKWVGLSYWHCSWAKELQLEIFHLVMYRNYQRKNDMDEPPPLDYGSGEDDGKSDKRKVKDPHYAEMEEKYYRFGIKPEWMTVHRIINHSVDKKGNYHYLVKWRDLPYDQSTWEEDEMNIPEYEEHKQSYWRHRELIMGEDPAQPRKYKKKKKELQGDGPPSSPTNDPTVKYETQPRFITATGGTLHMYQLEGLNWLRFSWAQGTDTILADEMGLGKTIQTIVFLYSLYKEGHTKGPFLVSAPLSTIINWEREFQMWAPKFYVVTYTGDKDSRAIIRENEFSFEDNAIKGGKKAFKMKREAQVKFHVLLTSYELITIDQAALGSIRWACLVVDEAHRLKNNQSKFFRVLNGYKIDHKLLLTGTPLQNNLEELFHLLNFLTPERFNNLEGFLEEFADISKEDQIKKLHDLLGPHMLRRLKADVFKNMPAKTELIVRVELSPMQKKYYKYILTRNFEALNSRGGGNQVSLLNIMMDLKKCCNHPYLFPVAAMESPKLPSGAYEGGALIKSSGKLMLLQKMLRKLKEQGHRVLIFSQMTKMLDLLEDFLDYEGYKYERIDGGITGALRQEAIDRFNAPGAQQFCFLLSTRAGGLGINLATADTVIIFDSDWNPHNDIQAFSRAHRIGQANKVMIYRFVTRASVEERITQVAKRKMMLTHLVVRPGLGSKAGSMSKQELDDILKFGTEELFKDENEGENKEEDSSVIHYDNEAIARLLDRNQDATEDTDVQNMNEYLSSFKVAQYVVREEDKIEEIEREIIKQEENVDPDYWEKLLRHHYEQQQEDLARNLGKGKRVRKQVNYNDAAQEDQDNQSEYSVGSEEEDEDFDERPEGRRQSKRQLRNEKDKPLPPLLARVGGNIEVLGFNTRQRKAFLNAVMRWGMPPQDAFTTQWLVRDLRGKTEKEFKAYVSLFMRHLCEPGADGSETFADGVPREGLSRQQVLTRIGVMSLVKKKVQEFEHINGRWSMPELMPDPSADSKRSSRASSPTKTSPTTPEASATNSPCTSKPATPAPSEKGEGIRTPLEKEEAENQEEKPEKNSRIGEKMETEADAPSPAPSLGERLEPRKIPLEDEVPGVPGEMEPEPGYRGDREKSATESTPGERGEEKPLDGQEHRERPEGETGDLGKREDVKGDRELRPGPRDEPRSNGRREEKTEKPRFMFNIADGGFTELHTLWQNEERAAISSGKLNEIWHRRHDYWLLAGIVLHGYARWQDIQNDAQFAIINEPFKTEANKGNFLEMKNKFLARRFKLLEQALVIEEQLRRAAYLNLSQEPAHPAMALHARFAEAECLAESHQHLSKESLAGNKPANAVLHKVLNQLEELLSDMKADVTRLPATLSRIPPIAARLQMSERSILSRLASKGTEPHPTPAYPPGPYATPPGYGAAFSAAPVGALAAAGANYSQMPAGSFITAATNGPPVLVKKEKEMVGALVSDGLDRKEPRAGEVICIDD
UniProt Q9H9B1: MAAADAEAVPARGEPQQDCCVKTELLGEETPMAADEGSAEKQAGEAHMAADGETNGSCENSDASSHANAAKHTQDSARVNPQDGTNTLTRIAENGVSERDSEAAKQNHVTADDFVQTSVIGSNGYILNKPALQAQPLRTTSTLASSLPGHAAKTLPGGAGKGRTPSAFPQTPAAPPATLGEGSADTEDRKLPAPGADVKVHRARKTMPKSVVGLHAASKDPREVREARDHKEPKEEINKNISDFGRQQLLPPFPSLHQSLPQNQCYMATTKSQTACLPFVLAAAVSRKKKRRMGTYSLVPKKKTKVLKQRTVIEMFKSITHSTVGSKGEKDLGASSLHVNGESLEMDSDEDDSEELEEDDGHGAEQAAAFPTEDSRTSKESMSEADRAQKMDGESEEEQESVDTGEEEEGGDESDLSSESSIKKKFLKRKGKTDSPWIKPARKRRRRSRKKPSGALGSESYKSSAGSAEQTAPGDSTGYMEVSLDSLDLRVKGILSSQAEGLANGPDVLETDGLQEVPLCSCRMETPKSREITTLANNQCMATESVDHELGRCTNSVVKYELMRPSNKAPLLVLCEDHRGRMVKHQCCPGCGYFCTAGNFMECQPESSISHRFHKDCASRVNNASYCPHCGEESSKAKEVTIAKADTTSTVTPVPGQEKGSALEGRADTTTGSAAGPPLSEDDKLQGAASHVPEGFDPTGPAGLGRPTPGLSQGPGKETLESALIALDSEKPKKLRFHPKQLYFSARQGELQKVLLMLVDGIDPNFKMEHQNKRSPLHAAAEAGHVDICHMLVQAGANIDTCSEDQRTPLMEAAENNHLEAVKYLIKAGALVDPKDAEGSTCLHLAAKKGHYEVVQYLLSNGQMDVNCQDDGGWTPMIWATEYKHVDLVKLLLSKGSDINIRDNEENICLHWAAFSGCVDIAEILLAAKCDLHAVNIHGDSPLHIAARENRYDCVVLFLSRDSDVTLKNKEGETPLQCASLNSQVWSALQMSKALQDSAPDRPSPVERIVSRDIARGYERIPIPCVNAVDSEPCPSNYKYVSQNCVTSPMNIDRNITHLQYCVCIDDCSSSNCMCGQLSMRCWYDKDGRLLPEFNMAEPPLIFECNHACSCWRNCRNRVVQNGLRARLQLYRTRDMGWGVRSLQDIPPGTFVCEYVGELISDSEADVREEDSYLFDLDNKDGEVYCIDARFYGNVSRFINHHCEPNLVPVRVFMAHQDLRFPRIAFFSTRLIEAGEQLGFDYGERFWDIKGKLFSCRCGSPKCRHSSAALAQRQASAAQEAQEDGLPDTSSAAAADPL
UniProt Q96KQ7: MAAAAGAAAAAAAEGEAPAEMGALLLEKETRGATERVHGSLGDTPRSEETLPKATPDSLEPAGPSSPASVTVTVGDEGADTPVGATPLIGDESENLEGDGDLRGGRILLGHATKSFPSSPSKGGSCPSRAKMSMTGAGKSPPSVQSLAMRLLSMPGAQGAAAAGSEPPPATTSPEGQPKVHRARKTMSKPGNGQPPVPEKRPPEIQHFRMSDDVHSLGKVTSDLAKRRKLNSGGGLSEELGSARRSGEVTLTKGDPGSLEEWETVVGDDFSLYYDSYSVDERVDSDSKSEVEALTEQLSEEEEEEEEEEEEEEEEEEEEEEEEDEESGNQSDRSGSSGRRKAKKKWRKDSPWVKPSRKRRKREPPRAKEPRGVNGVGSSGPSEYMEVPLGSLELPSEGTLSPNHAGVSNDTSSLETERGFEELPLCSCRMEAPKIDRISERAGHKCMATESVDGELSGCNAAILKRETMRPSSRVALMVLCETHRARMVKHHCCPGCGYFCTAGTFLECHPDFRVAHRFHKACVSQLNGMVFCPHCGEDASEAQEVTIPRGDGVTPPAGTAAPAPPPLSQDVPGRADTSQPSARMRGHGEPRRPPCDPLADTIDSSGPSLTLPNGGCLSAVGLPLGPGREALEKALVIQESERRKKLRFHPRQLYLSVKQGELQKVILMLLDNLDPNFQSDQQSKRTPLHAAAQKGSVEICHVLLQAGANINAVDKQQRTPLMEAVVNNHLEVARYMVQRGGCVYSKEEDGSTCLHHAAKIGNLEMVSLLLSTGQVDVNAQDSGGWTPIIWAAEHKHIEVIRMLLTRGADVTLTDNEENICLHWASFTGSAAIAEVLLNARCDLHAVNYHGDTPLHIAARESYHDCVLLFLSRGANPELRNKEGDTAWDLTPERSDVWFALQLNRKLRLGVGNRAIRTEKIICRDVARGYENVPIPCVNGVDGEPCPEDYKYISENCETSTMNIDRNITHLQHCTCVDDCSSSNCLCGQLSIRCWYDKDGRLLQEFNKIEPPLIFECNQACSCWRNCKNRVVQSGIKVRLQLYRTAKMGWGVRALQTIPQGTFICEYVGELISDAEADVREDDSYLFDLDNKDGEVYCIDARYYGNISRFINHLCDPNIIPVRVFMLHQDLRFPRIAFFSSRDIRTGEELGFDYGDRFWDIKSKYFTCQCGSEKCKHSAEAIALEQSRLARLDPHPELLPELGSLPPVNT
UniProt Q08945: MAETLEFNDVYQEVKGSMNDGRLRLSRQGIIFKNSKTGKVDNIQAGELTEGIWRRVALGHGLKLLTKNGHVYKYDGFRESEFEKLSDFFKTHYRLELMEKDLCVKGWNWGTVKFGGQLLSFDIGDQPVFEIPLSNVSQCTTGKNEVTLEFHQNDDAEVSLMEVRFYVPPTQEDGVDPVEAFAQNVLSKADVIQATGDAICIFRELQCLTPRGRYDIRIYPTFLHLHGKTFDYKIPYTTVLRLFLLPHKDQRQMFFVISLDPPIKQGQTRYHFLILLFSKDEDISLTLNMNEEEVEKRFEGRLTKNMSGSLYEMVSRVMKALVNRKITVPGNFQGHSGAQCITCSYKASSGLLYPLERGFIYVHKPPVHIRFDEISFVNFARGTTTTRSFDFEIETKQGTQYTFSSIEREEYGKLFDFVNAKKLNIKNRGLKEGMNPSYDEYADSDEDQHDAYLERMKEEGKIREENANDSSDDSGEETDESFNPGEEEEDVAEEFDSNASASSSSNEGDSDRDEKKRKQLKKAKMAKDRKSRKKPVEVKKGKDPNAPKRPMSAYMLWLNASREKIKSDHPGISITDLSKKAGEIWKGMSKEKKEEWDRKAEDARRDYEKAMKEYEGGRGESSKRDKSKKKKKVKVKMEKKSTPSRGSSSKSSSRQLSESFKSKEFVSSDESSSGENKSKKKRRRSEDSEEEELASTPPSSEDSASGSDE
UniProt P68400: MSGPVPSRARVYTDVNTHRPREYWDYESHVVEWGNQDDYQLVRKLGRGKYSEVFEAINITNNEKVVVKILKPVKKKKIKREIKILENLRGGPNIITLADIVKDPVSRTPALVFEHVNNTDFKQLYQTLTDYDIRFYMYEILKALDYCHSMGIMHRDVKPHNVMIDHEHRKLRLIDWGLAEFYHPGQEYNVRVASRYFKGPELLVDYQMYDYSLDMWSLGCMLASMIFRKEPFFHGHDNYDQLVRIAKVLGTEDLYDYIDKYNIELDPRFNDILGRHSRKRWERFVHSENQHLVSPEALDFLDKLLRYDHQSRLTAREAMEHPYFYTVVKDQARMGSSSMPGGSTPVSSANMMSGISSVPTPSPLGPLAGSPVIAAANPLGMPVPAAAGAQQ
UniProt Q5VWQ0: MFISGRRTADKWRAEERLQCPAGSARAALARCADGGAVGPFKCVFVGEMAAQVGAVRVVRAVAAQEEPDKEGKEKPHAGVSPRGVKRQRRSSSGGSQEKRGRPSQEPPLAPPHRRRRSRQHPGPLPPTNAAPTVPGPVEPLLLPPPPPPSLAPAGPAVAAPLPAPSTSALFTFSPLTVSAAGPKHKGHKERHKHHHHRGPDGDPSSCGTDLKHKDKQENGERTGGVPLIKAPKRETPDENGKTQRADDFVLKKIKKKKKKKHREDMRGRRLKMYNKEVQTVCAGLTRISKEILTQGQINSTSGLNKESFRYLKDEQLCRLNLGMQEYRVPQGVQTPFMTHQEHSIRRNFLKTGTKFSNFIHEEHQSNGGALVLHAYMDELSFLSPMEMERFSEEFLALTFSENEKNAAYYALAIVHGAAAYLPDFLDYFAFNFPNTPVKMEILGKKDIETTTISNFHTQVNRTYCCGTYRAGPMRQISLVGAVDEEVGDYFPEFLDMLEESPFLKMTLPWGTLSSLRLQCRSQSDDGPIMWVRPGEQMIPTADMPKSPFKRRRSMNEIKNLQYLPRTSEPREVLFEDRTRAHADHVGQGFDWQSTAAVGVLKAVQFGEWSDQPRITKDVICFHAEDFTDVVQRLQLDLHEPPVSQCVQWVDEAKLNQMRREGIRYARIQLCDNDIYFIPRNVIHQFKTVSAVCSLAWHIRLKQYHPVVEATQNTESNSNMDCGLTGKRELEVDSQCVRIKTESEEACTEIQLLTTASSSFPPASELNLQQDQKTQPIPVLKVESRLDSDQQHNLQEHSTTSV

Holding throughout (experiment): affinity purification with mass spectrometry; FLAG-tagged CHD N- or C-terminal fragment overexpressed in Expi293 cells; nuclear fraction lysed in 50 mM Tris-HCl, 150 mM NaCl, 0.5% IGEPAL, pH 7.5, with nuclease and sonication; FLAG antibody beads 2 h; washes with 200 mM NaCl; against FLAG empty vector; triplicate
Test [1] deals with FLAG-tagged CHD5 N-terminus (human) (UniProt Q8TDI0).
In test [2] the target is FLAG-tagged CHD3 N-terminus (human) (UniProt Q12873).
The target of test [3] is FLAG-tagged CHD4 N-terminus (human) (UniProt Q14839).
For test [4], the target named is FLAG-tagged CHD2 N-terminus (human) (UniProt O14647).
Test [5] has as its target FLAG-tagged CHD1 N-terminus (human) (UniProt O14646).
In test [6] the target is FLAG-tagged CHD6 N-terminus (human) (UniProt Q8TD26).
Test [7] has as its target FLAG-tagged CHD1 C-terminus (human) (UniProt O14646).
Test [8] deals with FLAG-tagged CHD8 N-terminus (human) (UniProt Q9HCK8).
For test [9], the target named is FLAG-tagged CHD5 C-terminus (human) (UniProt Q8TDI0).
The target in test [10] is FLAG-tagged CHD3 C-terminus (human) (UniProt Q12873).

These are yes or no findings as the source states them, for the method shown. In cells and extracts the contact can be indirect. These calls come from enrichment with a bait or labelling near it, and not all partners need be listed.

“bromodomain‐containing protein (BRD8) (from UniProt Q9H0E9 1-1235)”: in test [1], the binding result is “binds”.

As to “casein kinase II complex subunit CSK2B (from UniProt P67870 1-215)”, the binding result in test [2] and in test [3] was “binds” throughout.

For the molecule “casein kinase II complex subunit CSK22 (from UniProt P19784 1-350)”, the binding result in [2] and in test [3] was “binds” in each case.

Regarding “euchromatic histone lysine methyltransferase EHMT1 (from UniProt Q9H9B1 1-1298)”, the binding result in test [4], in [5] and in test [6] was “binds” throughout.

In the case of “euchromatic histone lysine methyltransferase EHMT2 (from UniProt Q96KQ7 1-1210)”, the binding result in test [4], in test [5] and in test [6] was “binds” each time.

Regarding “acid nuclear phosphoprotein ANP32A (from UniProt P39687 1-249)”, the binding entry in [6] was “binds”.

Turning to “acid nuclear phosphoprotein ANP32B (from UniProt Q92688 1-251)”, the binding result in test [6] is “binds”.

Take “structure‐specific recognition protein (from UniProt Q08945 1-709)”: the binding result in test [7] is listed as “binds”.

Consider “casein kinase II complex subunit CSK21 (from UniProt P68400 1-391)”, for which the binding entry in [2] and in [3] was “binds” throughout.

For “SPT16 homolog (from UniProt Q9Y5B9 1-1047)”, the binding result in test [7] is given as “binds”.

As to “round spermatid basic protein (RSBN1) (from UniProt Q5VWQ0 1-802)”, the binding result in test [2], in test [4], in [8] and in test [5] was “binds” throughout.

B1: activity‐dependent neuroprotective protein (ADNP) (protein, UniProt Q9H2P0 1-1102)
chain: MFQLPVNNLGSLRKARKTVKKILSDIGLEYCKEHIEDFKQFEPNDFYLKNTTWEDVGLWDPSLTKNQDYRTKPFCCSACPFSSKFFSAYKSHFRNVHSEDFENRILLNCPYCTFNADKKTLETHIKIFHAPNASAPSSSLSTFKDKNKNDGLKPKQADSVEQAVYYCKKCTYRDPLYEIVRKHIYREHFQHVAAPYIAKAGEKSLNGAVPLGSNAREESSIHCKRCLFMPKSYEALVQHVIEDHERIGYQVTAMIGHTNVVVPRSKPLMLIAPKPQDKKSMGLPPRIGSLASGNVRSLPSQQMVNRLSIPKPNLNSTGVNMMSSVHLQQNNYGVKSVGQGYSVGQSMRLGLGGNAPVSIPQQSQSVKQLLPSGNGRSYGLGSEQRSQAPARYSLQSANASSLSSGQLKSPSLSQSQASRVLGQSSSKPAAAATGPPPGNTSSTQKWKICTICNELFPENVYSVHFEKEHKAEKVPAVANYIMKIHNFTSKCLYCNRYLPTDTLLNHMLIHGLSCPYCRSTFNDVEKMAAHMRMVHIDEEMGPKTDSTLSFDLTLQQGSHTNIHLLVTTYNLRDAPAESVAYHAQNNPPVPPKPQPKVQEKADIPVKSSPQAAVPYKKDVGKTLCPLCFSILKGPISDALAHHLRERHQVIQTVHPVEKKLTYKCIHCLGVYTSNMTASTITLHLVHCRGVGKTQNGQDKTNAPSRLNQSPSLAPVKRTYEQMEFPLLKKRKLDDDSDSPSFFEEKPEEPVVLALDPKGHEDDSYEARKSFLTKYFNKQPYPTRREIEKLAASLWLWKSDIASHFSNKRKKCVRDCEKYKPGVLLGFNMKELNKVKHEMDFDAEWLFENHDEKDSRVNASKTADKKLNLGKEDDSSSDSFENLEEESNESGSPFDPVFEVEPKISNDNPEEHVLKVIPEDASESEEKLDQKEDGSKYETIHLTEEPTKLMHNASDSEVDQDDVVEWKDGASPSESGPGSQQVSDFEDNTCEMKPGTWSDESSQSEDARSSKPAAKKKATMQGDREQLKWKNSSYGKVEGFWSKDQSQWKNASENDERLSNPQIEWQNSTIDSEDGEQFDNMTDGVAEPMHGSLAGVKLSSQQA
As for B1, the binding result in test [9] and in test [10] was “binds” each time.

B2: TAF1B (protein, UniProt Q53T94 1-588)
chain: MDLEEAEEFKERCTQCAAVSWGLTDEGKYYCTSCHNVTERYQEVTNTDLIPNTQIKALNRGLKKKNNTEKGWDWYVCEGFQYILYQQAEALKNLGVGPELKNDVLHNFWKRYLQKSKQAYCKNPVYTTGRKPTVLEDNLSHSDWASEPELLSDVSCPPFLESGAESQSDIHTRKPFPVSKASQSETSVCSGSLDGVEYSQRKEKGIVKMTMPQTLAFCYLSLLWQREAITLSDLLRFVEEDHIPYINAFQHFPEQMKLYGRDRGIFGIESWPDYEDIYKKTVEVGTFLDLPRFPDITEDCYLHPNILCMKYLMEVNLPDEMHSLTCHVVKMTGMGEVDFLTFDPIAKMAKTVKYDVQAVAIIVVVLKLLFLLDDSFEWSLSNLAEKHNEKNKKDKPWFDFRKWYQIMKKAFDEKKQKWEEARAKYLWKSEKPLYYSFVDKPVAYKKREMVVNLQKQFSTLVESTATAGKKSPSSFQFNWTEEDTDRTCFHGHSLQGVLKEKGQSLLTKNSLYWLSTQKFCRCYCTHVTTYEESNYSLSYQFILNLFSFLLRIKTSLLHEEVSLVEKKLFEKKYSVKRKKSRSKKVRRH
For the molecule B2, the binding result in test [5] is listed as “binds”.

B3: TAF1C (protein, UniProt Q15572 1-869)
chain: MDFPSSLRPALFLTGPLGLSDVPDLSFMCSWRDALTLPEAQPQNSENGALHVTKDLLWEPATPGPLPMLPPLIDPWDPGLTARDLLFRGGCRYRKRPRVVLDVTEQISRFLLDHGDVAFAPLGKLMLENFKLEGAGSRTKKKTVVSVKKLLQDLGGHQPWGCPWAYLSNRQRRFSILGGPILGTSVASHLAELLHEELVLRWEQLLLDEACTGGALAWVPGRTPQFGQLVYPAGGAQDRLHFQEVVLTPGDNPQFLGKPGRIQLQGPVRQVVTCTVQGESKALIYTFLPHWLTCYLTPGPFHPSSALLAVRSDYHCAVWKFGKQWQPTLLQAMQVEKGATGISLSPHLPGELAICSRSGAVCLWSPEDGLRQIYRDPETLVFRDSSSWRWADFTAHPRVLTVGDRTGVKMLDTQGPPGCGLLLFRLGAEASCQKGERVLLTQYLGHSSPKCLPPTLHLVCTQFSLYLVDERLPLVPMLKWNHGLPSPLLLARLLPPPRPSCVQPLLLGGQGGQLQLLHLAGEGASVPRLAGPPQSLPSRIDSLPAFPLLEPKIQWRLQERLKAPTIGLAAVVPPLPSAPTPGLVLFQLSAAGDVFYQQLRPQVDSSLRRDAGPPGDTQPDCHAPTASWTSQDTAGCSQWLKALLKVPLAPPVWTAPTFTHRQMLGSTELRREEEEGQRLGVLRKAMARGQLLLQRDLGSLPAAEPPPAPESGLEDKLSERLGEAWAGRGAAWWERQQGRTSEPGRQTRRPKRRTQLSSSFSLSGHVDPSEDTSSPHSPEWPPADALPLPPTTPPSQELTPDACAQGVPSEQRQMLRDYMAKLPPQRDTPGCATTPPHSQASSVRATRSQQHTPVLSSSQPLRKKPRMGF
As for B3, the binding result in test [5] is given as “binds”.

B4: barrier to autointegration factor (protein, UniProt O75531 1-89)
chain: MTTSQKHRDFVAEPMGEKPVGSLAGIGEVLGKKLEERGFDKAYVVLGQFLVLKKDEDLFREWLKDTCGANAKQSRDCFGCLREWCDAFL
With B4, in test [7], the binding entry was “binds”.

B5: TAF1D (protein, UniProt Q9H5J8 1-278)
chain: MDKSGIDSLDHVTSDAVELANRSDNSSDSSLFKTQCIPYSPKGEKRNPIRKFVRTPESVHASDSSSDSSFEPIPLTIKAIFERFKNRKKRYKKKKKRRYQPTGRPRGRPEGRRNPIYSLIDKKKQFRSRGSGFPFLESENEKNAPWRKILTFEQAVARGFFNYIEKLKYEHHLKESLKQMNVGEDLENEDFDSRRYKFLDDDGSISPIEESTAEDEDATHLEDNECDIKLAGDSFIVSSEFPVRLSVYLEEEDITEEAALSKKRATKAKNTGQRGLKM
As for B5, the binding result in [5] is “binds”.
